60 compounds from PubChem BioAssay AID2685 (National Center for Advancing Translational Sciences (NCATS), 2010) can be followed below.

The nature of the test: qHTS Assay for Lipid Storage Modulators in Drosophila S3 Cells.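 On cell number change: cells counted by Cell Tracker Red CMTPX staining in the red channel.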 The note with it: BODIPY lipid droplet fluorescence, 18-24 h; for cell number change: measured here: cell count max response, cells fed with added oleic acid. In short, it runs like this:
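Drosophila S3 cells got compounds at several concentrations plus oleic acid (400 uM solution). Laser-scanning cytometry with 488 nm excitation read lipid droplets at 500-530 nm and cells at 575-640 nm. Percent activity was relative to 20 uM Triacsin C.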
A general note: Quantitative high-throughput screening tests each substance at several concentrations.

[1] abbreviates: measured here: lipid fluorescence (Fed channel) AC50, cells fed with added oleic acid.
Where [2] appears, read: measured here: cell number channel AC50, cells fed with added oleic acid.

SMILES strings stand for the structures. This is one part of the list. The main result of the screen is listed elsewhere. These columns were measured beside it and carry no call. Most of these compounds were active or inconclusive in the main read-out, so they are no random draw. The note in brackets gives the kind of curve behind each potency; many fits are weak. Where a SMILES comes first, the peptide text is derived from it. The star is where a group is joined. Cbz = O=C(OCc1ccccc1)*

Regarding `CCOc1ccc(C(=O)N(Cc2ccccc2)c2cccc(C)c2)cc1OC`, the cell number change is -1.62%.

As usually defined, the AC50 is the concentration giving half of the maximal activity seen. `Cc1ccc(SCC(=O)NCC(C)C)cc1`: the cell number change was 1.19%. Under setting [1], the AC50 was 0.0259 µM [falling, full curve, poor fit].

Turning to `CCCCOC(=O)c1ccc(NC(=O)c2c(Cl)ccc(Cl)c2OC)cc1`, the cell number change is -6.58%. In addition, the AC50 under setting [1] is 18.4 µM [rising, partial curve].

On to `Cc1cc(NC(=O)CCC(=O)N(CC(=O)NCC2CCCO2)c2ccc(C(C)C)cc2)no1` (stereo unspecified), for which the cell number change is -8.57%.

For `COc1ccc(NC(=O)c2cc3ccccc3o/c2=N\NS(=O)(=O)c2ccc(C)cc2)cc1`, the cell number change was determined as 10.7%.

For the compound `CCOC(=O)Nc1sc2c(c1C(=O)OCC)CCC2`, the cell number change came to 1.85%. The AC50 under setting [1] was 29.1 µM [rising, single point].

`Cc1onc(-c2ccccc2Cl)c1C(=O)NCc1ccc(S(N)(=O)=O)cc1`: the cell number change is 16.3%.

On to `CN1CCN(c2nc3c(c(=O)n(C)c(=O)n3C)n2Cc2cccc(Br)c2)CC1`, for which the cell number change is -7.67%. In addition, under setting [1], the AC50 was 0.58 µM [rising, single point].

In the case of `Cc1c(Cl)c([N+](=O)[O-])nn1CC(=O)N1CCN(C23CC4CC(CC(C4)C2)C3)CC1`, the cell number change was found to be 2.86%.

With `O=C(NC1CCCCC1)C(c1ccccc1)N(C(=O)Cc1ccsc1)c1ccccc1` (stereo unspecified), the AC50 runs as follows: under setting [2], 1.3 µM [falling, partial curve]; under setting [1], 6.51 µM [falling, single point].

For `COC(=O)C(CO)NC(=O)C1CCCN1C(=O)CNC(=O)OCc1ccccc1` (stereo not drawn) (Cbz-Gly-Pro-Ser-OMe; configuration not given here), the cell number change worked out at 35.6%. Also, the AC50 under setting [2] was 32.6 µM [rising, partial curve, poor fit]. Besides, the AC50 under setting [1] is 18.4 µM [rising, single point].

On to `c1ccc(N2CCN(Cc3ccsc3)CC2)nc1`, for which the cell number change amounted to 10.1%. The AC50 under setting [1] was 0.411 µM [falling, full curve, poor fit].

For `N#Cc1ccccc1NC(=O)CN1C(=O)NC(Cc2c[nH]c3ccccc23)C1=O` (stereo unspecified), the cell number change is 3.68%.

Take `O=C(CCCC(=O)OCC1CCCO1)OCC1CCCO1` (stereo unspecified): the cell number change is -13.7%. In addition, under setting [1], the AC50 was 4.11 µM [falling, partial curve, poor fit].

For `CN(C(=O)CSc1ncnc2ccccc12)C1CCCCC1`, the AC50 under setting [1] is 2.06 µM [falling, partial curve].

For the compound `C/C=C(/C)C(=O)OC1Cc2c(ccc3ccc(=O)oc23)OC1(C)C` (stereo unspecified), the cell number change was -51.9%. The AC50 under setting [2] is 18.4 µM [falling, single point]. Also, the AC50 under setting [1] was 29.1 µM [falling, single point].

Turning to `CC(CCc1ccccc1)NC(=O)CCc1cn(C)c2ccccc12` (stereo unspecified), the cell number change was 75.4%. The AC50 under setting [2] was 29.1 µM [rising, single point]. For the same compound, the AC50 under setting [1] was 29.1 µM [rising, single point].

With `C#CCn1c(=NC(=O)c2cccs2)sc2cccc(OCC)c21`, the cell number change is 4.73%. The AC50 under setting [1] was 6.51 µM [rising, single point].

For the compound `O=C(NCc1ccco1)c1cc(S(=O)(=O)N2CCOCC2)c(Cl)cc1Cl`, the cell number change came out at 0.68%. Besides, under setting [1], the AC50 is 2.06 µM [falling, full curve, poor fit].

As to `O=C(CCn1nnc2ccccc21)OCC(=O)c1ccc([N+](=O)[O-])cc1`, under setting [1], the AC50 was 0.82 µM [falling, full curve].

On to `COc1ccc([C@H]2CC(=O)C=C(c3ccc4ccccc4c3)C2)cc1OC`, for which the cell number change is -15.6%. Under setting [1], the AC50 was 0.184 µM [rising, full curve, poor fit].

For `COc1cc(/C=C/C(=O)OCC(=O)c2ccc(S(=O)(=O)N3CCCCC3)cc2)cc(OC)c1OC`, the cell number change is 10.4%. Under setting [1], the AC50 was 29.1 µM [rising, single point].

For `CCCCNC(=O)N(O)C1N(/N=C/c2ccccc2O)C(=S)SC1(C)C` (stereo unspecified), the cell number change was 24.3%.

In the case of `Cc1cccc(NS(=O)(=O)c2ccc3[nH]c(=O)cc(C(=O)OC(C)C(=O)Nc4ccc([N+](=O)[O-])cc4)c3c2)c1` (stereo unspecified), the cell number change is -22.8%.

Take `O=C(COc1ccc(Br)cc1CNC1CCCC1)Nc1ccccc1`: the cell number change came to 10.5%. The AC50 under setting [2] was 7.31 µM [falling, partial curve, poor fit].

Take `COc1ccc(N2C(=O)CC(Sc3nnnn3-c3ccc(F)cc3)C2=O)cc1` (stereo unspecified): the cell number change is -41.5%. Moreover, the AC50 under setting [2] was 3.66 µM [falling, full curve].

For `COc1ccc(OC)c(S(=O)(=O)NC2CCCCC2)c1`, the cell number change came to 49%. Further, the concentration at half-maximal activity (AC50) under setting [2] was 29.1 µM [rising, single point]. The AC50 under setting [1] is 6.51 µM [rising, partial curve].

With `COc1cc2c(cc1OC)CN(S(C)(=O)=O)CC2`, the AC50 under setting [1] was 29.1 µM [rising, single point].

Regarding `O=C(Nc1ccc(S(=O)(=O)N2CCCCCC2)cc1)c1c(F)cccc1F`, the cell number change is 12.1%.

As for `O=C(N1CCOCC1)N1CCN(c2nc(-c3ccccc3)cs2)CC1`, the cell number change is 43.1%. Besides, the AC50 under setting [2] was 2.59 µM [rising, full curve].

Take `C=CCNc1nnc(SCC(=O)N2CCCCC2)c2ccccc12`: the AC50 under setting [2] is 0.92 µM [rising, full curve] and the AC50 under setting [1] is 0.231 µM [rising, full curve].

Consider `CCOC(=O)CNC(=O)c1c(C)nn(C)c1Cl`, for which the cell number change was -46.4%.

Turning to `COC(=O)c1c(S(=O)(=O)NCc2ccccc2)sc(C(=O)O)c1C`, the cell number change was -5.52%. Also, under setting [1], the AC50 is 29.1 µM [falling, single point].

In the case of `CCOc1ccc(C2N(c3ccc(OC)cc3)C(=O)C3CCCN32)cc1OC` (stereo unspecified), the AC50 under setting [1] is 29.1 µM [rising, partial curve, poor fit].

As to `COc1ccc(CNCc2c(F)cccc2F)cc1OC`, the cell number change was found to be 4.4%.

On to `CN(C)S(=O)(=O)c1cccc(NC(=O)CO/N=C(\N)c2ccccc2)c1`, for which the AC50 was 0.92 µM [rising, partial curve] under setting [2] and 0.116 µM [rising, full curve, poor fit] under setting [1].

Take `O=C(Nc1ccc(Nc2ccncc2)cc1)c1ccc(Nc2ccnc3ccc([N+](=O)[O-])cc23)cc1[N+](=O)[O-]`: the cell number change is -26.9%. In addition, the AC50 under setting [1] is 29.1 µM [falling, single point].

On to `COc1ccc(C2(C(=O)NCCCN3CCOCC3)CCOCC2)cc1`, for which the cell number change came to 5.01%.

As for `CC(=O)Nc1ccc(S(=O)(=O)NCc2nc(-c3ccccc3Cl)no2)cc1`, the cell number change was 2.52%.

Consider `CSc1cc(-c2ccccc2)n(Cc2ccc(Cl)cc2Cl)c(=O)c1C#N`, for which the AC50 runs as follows: under setting [2], 0.731 µM [rising, single point]; under setting [1], 0.651 µM [rising, single point].

Turning to `CCN(Cc1ccccc1)C(=O)Cc1ccc(OC)c(S(=O)(=O)N2CCOCC2)c1`, the AC50 is, setting by setting: under setting [2], 0.58 µM [falling, full curve, poor fit]; under setting [1], 6.51 µM [rising, single point].

`CCCCNC(=O)CC1N=C2c3ccccc3N=C(SCC(=O)Nc3ccccc3OC)N2C1=O` (stereo unspecified): the cell number change was found to be 2.33%. Under setting [1], the AC50 was 0.92 µM [rising, full curve].

For `COc1ccccc1N(Cc1cc(=O)[nH]c2ccccc12)C(=O)C(C)C`, the cell number change was found to be 45.4%. Besides, the AC50 under setting [2] was 5.17 µM [rising, full curve, poor fit]. For the same compound, the AC50 under setting [1] was 9.2 µM [rising, partial curve].

As for `CC(C)Cc1nnc(NS(C)(=O)=O)s1`, the cell number change was found to be 13%. The AC50 under setting [1] is 1.16 µM [falling, full curve, poor fit].

For the compound `O=C(O)c1ccc(N/N=C/c2c(F)cccc2Cl)cc1`, the cell number change stood at 21.5%. For the same compound, the AC50 under setting [1] was 0.58 µM [rising, partial curve].

As for `CN(C(=O)c1ccc(OC2CCN(Cc3ccccn3)CC2)cc1)C1CCCCC1`, the cell number change was found to be 22.6%. Also, under setting [1], the AC50 was 13 µM [rising, single point].

With `CC(NC(=O)C1c2ccccc2Oc2ccccc21)C1CCCO1` (stereo unspecified), the cell number change stood at 62.9%. Under setting [2], the AC50 is 18.4 µM [rising, single point]. Moreover, the AC50 under setting [1] was 29.1 µM [rising, single point].

Turning to `COc1ccccc1C(=O)Nc1cccc2nc(C)ccc12`, the cell number change is -25.7%.

Turning to `Cc1cc(N2CCCC2=O)cc(C)c1S(=O)(=O)NCCOc1ccc(C(C)(C)C)cc1`, the cell number change is -54.2%. The AC50 under setting [2] is 4.61 µM [falling, partial curve]. Moreover, the AC50 under setting [1] is 4.11 µM [falling, full curve].

`O=C(CNC(=O)c1cccc(Br)c1)N/N=C/c1cc(Br)cc(Br)c1O`: under setting [1], the AC50 is 6.51 µM [rising, single point].

Turning to `O=S(=O)(c1cc(C(F)(F)F)ccc1Cl)N1CCN(c2ccccn2)CC1`, the cell number change was 40.2%. The AC50 under setting [2] was 4.61 µM [rising, full curve].

Regarding `Cc1nc(NC(=O)c2ccccc2)sc1-c1csc(Nc2cccc(F)c2)n1`, the cell number change is -67.8%. In addition, under setting [2], the AC50 is 8.2 µM [falling, partial curve].

`Cc1ccc(/C(O)=C2\C(=O)C(=O)N(C)C2c2ccc([N+](=O)[O-])cc2)cc1` (stereo unspecified): the cell number change was determined as 23.7%.

Consider `O=C(C1CCN(S(=O)(=O)c2cccc3cccnc23)CC1)N1CCn2c1nc1ccccc12`, for which the cell number change is -11.6%. Further, under setting [1], the AC50 was 8.2 µM [rising, partial curve].

In the case of `O=[N+]([O-])c1cccc(S(=O)(=O)c2ccc(NCCO)c([N+](=O)[O-])c2)c1`, the cell number change came out at 11.3%. For the same compound, under setting [2], the concentration at half-maximal activity (AC50) is 0.13 µM [falling, full curve, poor fit]. Moreover, under setting [1], the AC50 is 0.13 µM [falling, full curve, poor fit].

In the case of `CC(=O)c1cn(-c2ccc(Cl)cc2)c(=O)n(Cc2ccc(F)cc2)c1=O`, the cell number change was found to be 3.69%.

On to `N#Cc1ccc(OCC(=O)N/N=C(\CCC(=O)O)c2cccs2)cc1`, for which the cell number change is -9.25%. Besides, under setting [1], the AC50 was 6.51 µM [falling, single point].

Consider `O=C(NC(Nc1nc2ccc([N+](=O)[O-])cc2s1)(C(F)(F)F)C(F)(F)F)c1ccccc1`, for which the AC50 reads like this: under setting [2], 5.8 µM [falling, partial curve]; under setting [1], 6.51 µM [falling, single point].

On to `Nc1c(-c2ccccc2)c(CSc2nc3ccccc3[nH]2)nn1-c1cccc(Cl)c1`, for which the AC50 is 2.06 µM [rising, partial curve, poor fit] under setting [2] and 0.103 µM [falling, full curve, poor fit] under setting [1].

Regarding `Cc1ccc(-c2nn(CC(=O)NCC3CCCO3)c(=O)c3ccccc23)cc1` (stereo unspecified), the cell number change amounted to 17.6%.
